In publication PMC1888729:
These are yes or no findings as the source states them, for the method shown. Binding seen in cells or lysates may run through a third protein. A yes stands for co-enrichment or nearness to the bait. Other partners may have been found. Where a sequence is shown, tags or fusion partners need not be part of it.

By UniProt entry, the sequences of proteins in these tests, tags left out. Where a name states a change or a piece, a line headed by the entry shows the natural chain unless it says otherwise.
UniProt Q9UHX1: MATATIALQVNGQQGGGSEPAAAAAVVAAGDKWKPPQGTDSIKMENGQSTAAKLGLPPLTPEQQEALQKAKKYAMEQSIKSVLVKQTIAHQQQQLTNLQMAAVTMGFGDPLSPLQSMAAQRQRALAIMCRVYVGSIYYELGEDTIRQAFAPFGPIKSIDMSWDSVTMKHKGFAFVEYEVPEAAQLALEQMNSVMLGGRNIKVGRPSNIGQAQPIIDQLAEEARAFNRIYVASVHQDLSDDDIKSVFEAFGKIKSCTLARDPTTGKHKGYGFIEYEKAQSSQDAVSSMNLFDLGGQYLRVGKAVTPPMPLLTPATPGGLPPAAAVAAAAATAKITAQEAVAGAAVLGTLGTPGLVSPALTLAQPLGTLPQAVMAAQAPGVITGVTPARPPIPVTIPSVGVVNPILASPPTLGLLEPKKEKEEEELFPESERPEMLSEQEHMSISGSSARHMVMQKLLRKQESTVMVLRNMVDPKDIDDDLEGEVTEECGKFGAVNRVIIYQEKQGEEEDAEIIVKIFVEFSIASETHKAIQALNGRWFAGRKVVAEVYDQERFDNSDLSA

B1: DDx46/prp5 (protein, UniProt Q7L014 1-1031)
chain: MGRESRHYRKRSASRGRSGSRSRSRSPSDKRSKRGDDRRSRSRDRDRRRERSRSRDKRRSRSRDRKRLRRSRSRERDRSRERRRSRSRDRRRSRSRSRGRRSRSSSPGNKSKKTENRSRSKEKTDGGESSKEKKKDKDDKEDEKEKDAGNFDQNKLEEEMRKRKERVEKWREEQRKKAMENIGELKKEIEEMKQGKKWSLEDDDDDEDDPAEAEKEGNEMEGEELDPLDAYMEEVKEEVKKFNMRSVKGGGGNEKKSGPTVTKVVTVVTTKKAVVDSDKKKGELMENDQDAMEYSSEEEEVDLQTALTGYQTKQRKLLEPVDHGKIEYEPFRKNFYVEVPELAKMSQEEVNVFRLEMEGITVKGKGCPKPIKSWVQCGISMKILNSLKKHGYEKPTPIQTQAIPAIMSGRDLIGIAKTGSGKTIAFLLPMFRHIMDQRSLEEGEGPIAVIMTPTRELALQITKECKKFSKTLGLRVVCVYGGTGISEQIAELKRGAEIIVCTPGRMIDMLAANSGRVTNLRRVTYVVLDEADRMFDMGFEPQVMRIVDNVRPDRQTVMFSATFPRAMEALARRILSKPIEVQVGGRSVVCSDVEQQVIVIEEEKKFLKLLELLGHYQESGSVIIFVDKQEHADGLLKDLMRASYPCMSLHGGIDQYDRDSIINDFKNGTCKLLVATSVAARGLDVKHLILVVNYSCPNHYEDYVHRAGRTGRAGNKGYAYTFITEDQARYAGDIIKALELSGTAVPPDLEKLWSDFKDQQKAEGKIIKKSSGFSGKGFKFDETEQALANERKKLQKAALGLQDSDDEDAAVDIDEQIESMFNSKKRVKDMAAPGTSSVPAPTAGNAEKLEIAKRLALRINAQKNLGIESQDVMQQATNAILRGGTILAPTVSAKTIAEQLAEKINAKLNYVPLEKQEEERQDGGQNESFKRYEEELEINDFPQTARWKVTSKEALQRISEYSEAAITIRGTYFPPGKEPKEGERKIYLAIESANELAVQKAKAEITRLIKEELIRLQNSYQPTNKGRYKVL
B2: RNPS1 (protein, UniProt Q15287 1-305)
chain: MDLSGVKKKSLLGVKENNKKSSTRAPSPTKRKDRSDEKSKDRSKDKGATKESSEKDRGRDKTRKRRSASSGSSSTRSRSSSTSSSGSSTSTGSSSGSSSSSASSRSGSSSTSRSSSSSSSSGSPSPSRRRHDNRRRSRSKSKPPKRDEKERKRRSPSPKPTKVHIGRLTRNVTKDHIMEIFSTYGKIKMIDMPVERMHPHLSKGYAYVEFENPDEAEKALKHMDGGQIDGQEITATAVLAPWPRPPPRRFSPPRRMLPPPPMWRRSPPRMRRRSRSPRRRSPVRRRSRSPGRRRHRSRSSSNSSR
B3: SRrp86 (protein, UniProt Q8WXA9 1-508)
chain: MTSLMPGAGLLPIPTPNPLTTLGVSLSSLGAIPAAALDPNIATLGEIPQPPLMGNVDPSKIDEIRRTVYVGNLNSQTTTADQLLEFFKQVGEVKFVRMAGDETQPTRFAFVEFADQNSVPRALAFNGVMFGDRPLKINHSNNAIVKPPEMTPQAAAKELEEVMKRVREAQSFISAAIEPESGKSNERKGGRSRSHTRSKSRSSSKSHSRRKRSQSKHRSRSHNRSRSRQKDRRRSKSPHKKRSKSRERRKSRSRSHSRDKRKDTREKIKEKERVKEKDREKEREREKEREKEKERGKNKDRDKEREKDREKDKEKDREREREKEHEKDRDKEKEKEQDKEKEREKDRSKEIDEKRKKDKKSRTPPRSYNASRRSRSSSRERRRRRSRSSSRSPRTSKTIKRKSSRSPSPRSRNKKDKKREKERDHISERRERERSTSMRKSSNDRDGKEKLEKNSTSLKEKEHNKEPDSSVSKEVDDKDAPRTEENKIQHNGNCQLNEENLSTKTEAV
B4: SRp55 (protein, UniProt Q13247 1-344)
chain: MPRVYIGRLSYNVREKDIQRFFSGYGRLLEVDLKNGYGFVEFEDSRDADDAVYELNGKELCGERVIVEHARGPRRDRDGYSYGSRSGGGGYSSRRTSGRDKYGPPVRTEYRLIVENLSSRCSWQDLKDFMRQAGEVTYADAHKERTNEGVIEFRSYSDMKRALDKLDGTEINGRNIRLIEDKPRTSHRRSYSGSRSRSRSRRRSRSRSRRSSRSRSRSISKSRSRSRSRSKGRSRSRSKGRKSRSKSKSKPKSDRGSHSHSRSRSKDEYEKSRSRSRSRSPKENGKGDIKSKSRSRSQSRSNSPLPVPPSKARSVSPPPKRATSRSRSRSRSKSRSRSRSSSRD
B5: TRA-2 alpha (protein, UniProt Q13595 1-282)
chain: MSDVEENNFEGRESRSQSKSPTGTPARVKSESRSGSRSPSRVSKHSESHSRSRSKSRSRSRRHSHRRYTRSRSHSHSHRRRSRSRSYTPEYRRRRSRSHSPMSNRRRHTGSRANPDPNTCLGVFGLSLYTTERDLREVFSRYGPLSGVNVVYDQRTGRSRGFAFVYFERIDDSKEAMERANGMELDGRRIRVDYSITKRAHTPTPGIYMGRPTHSGGGGGGGGGGGGGGGGRRRDSYYDRGYDRGYDRYEDYDYRYRRRSPSPYYSRYRSRSRSRSYSPRRY
B6: 9G8 (protein, UniProt Q16629 1-238)
chain: MSRYGRYGGETKVYVGNLGTGAGKGELERAFSYYGPLRTVWIARNPPGFAFVEFEDPRDAEDAVRGLDGKVICGSRVRVELSTGMPRRSRFDRPPARRPFDPNDRCYECGEKGHYAYDCHRYSRRRRSRSRSRSHSRSRGRRYSRSRSRSRGRRSRSASPRRSRSISLRRSRSASLRRSRSGSIKGSRYFQSPSRSRSRSRSISRPRSSRSKSRSPSPKRSRSPSGSPRRSASPERMD
B7: NHN1 (protein, UniProt Q86VM9 1-953)
chain: MDVAESPERDPHSPEDEEQPQGLSDDDILRDSGSDQDLDGAGVRASDLEDEESAARGPSQEEEDNHSDEEDRASEPKSQDQDSEVNELSRGPTSSPCEEEGDEGEEDRTSDLRDEASSVTRELDEHELDYDEEVPEEPAPAVQEDEAEKAGAEDDEEKGEGTPREEGKAGVQSVGEKESLEAAKEKKKEDDDGEIDDGEIDDDDLEEGEVKDPSDRKVRPRPTCRFFMKGNCTWGMNCRFIHPGVNDKGNYSLITKADPFPPNGAPPLGPHPLMPANPWGGPVVDEILPPPPPEPPTESAWERGLRHAKEVLKKATIRKEQEPDFEEKRFTVTIGEDEREFDKENEVFRDWNSRIPRDVRDTVLEPYADPYYDYEIERFWRGGQYENFRVQYTETEPYHNYRERERERERENRQRERERERERDRERERRQRERERERERERDKERQRRKEEWERERAKRDEKDRQHRDRDREKEREKEKGKPKPRSPQPPSRQAEPPKKEAATTGPQVKRADEWKDPWRRSKSPKKKLGVSVSPSRARRRRKTSASSASASNSSRSSSRSSSYSGSGSSRSRSRSSSYSSYSSRSSRHSSFSGSRSRSRSFSSSPSPSPTPSPHRPSIRTKGEPAPPPGKAGEKSVKKPAPPPAPPQATKTTAPVPEPTKPGDPREARRKERPARTPPRRRTLSGSGSGSGSSYSGSSSRSRSLSVSSVSSVSSATSSSSSAHSVDSEDMYADLASPVSSASSRSPAPAQTRKEKGKSKKEDGVKEEKRKRDSSTQPPKSAKPPAGGKSSQQPSTPQQAPPGQPQQGTFVAHKEIKLTLLNKAADKGSRKRYEPSDKDRQSPPPAKRPNTSPDRGSRDRKSGGRLGSPKPERQRGQNSKAPAAPADRKRQLSPQSKSSSKVTSVPGKASDPGAASTKSGKASTLSRREELLKQLKAVEDAIARKRAKIPGKA
B8: TRA2-beta (protein, UniProt P62995 1-288)
chain: MSDSGEQNYGERESRSASRSGSAHGSGKSARHTPARSRSKEDSRRSRSKSRSRSESRSRSRRSSRRHYTRSRSRSRSHRRSRSRSYSRDYRRRHSHSHSPMSTRRRHVGNRANPDPNCCLGVFGLSLYTTERDLREVFSKYGPIADVSIVYDQQSRRSRGFAFVYFENVDDAKEAKERANGMELDGRRIRVDFSITKRPHTPTPGIYMGRPTYGSSRRRDYYDRGYDRGYDDRDYYSRSYRGGGGGGGGWRAAQDRDQIYRRRSPSPYYSRGGYRSRSRSRSYSPRRY
B9: CROP(LUC7a) (protein, UniProt O95232 1-432)
chain: MISAAQLLDELMGRDRNLAPDEKRSNVRWDHESVCKYYLCGFCPAELFTNTRSDLGPCEKIHDENLRKQYEKSSRFMKVGYERDFLRYLQSLLAEVERRIRRGHARLALSQNQQSSGAAGPTGKNEEKIQVLTDKIDVLLQQIEELGSEGKVEEAQGMMKLVEQLKEERELLRSTTSTIESFAAQEKQMEVCEVCGAFLIVGDAQSRVDDHLMGKQHMGYAKIKATVEELKEKLRKRTEEPDRDERLKKEKQEREEREKEREREREERERKRRREEEEREKERARDRERRKRSRSRSRHSSRTSDRRCSRSRDHKRSRSRERRRSRSRDRRRSRSHDRSERKHRSRSRDRRRSKSRDRKSYKHRSKSRDREQDRKSKEKEKRGSDDKKSSVKSGSREKQSEDTNTESKESDTKNEVNGTSEDIKSEGDTQSN
B10: SC35 (protein, UniProt Q01130 1-221)
chain: MSYGRPPPDVEGMTSLKVDNLTYRTSPDTLRRVFEKYGRVGDVYIPRDRYTKESRGFAFVRFHDKRDAEDAMDAMDGAVLDGRELRVQMARYGRPPDSHHSRRGPPPRRYGGGGYGRRSRSPRRRRRSRSRSRSRSRSRSRSRYSRSKSRSRTRSRSRSTSKSRSARRSKSKSSSVSRSRSRSRSRSRSRSPPPVSKRESKSRSRSKSPPKSPEEEGAVSS
B11: LUC7L2 (protein, UniProt Q9Y383 1-392)
chain: MSAQAQMRAMLDQLMGTSRDGDTTRQRIKFSDDRVCKSHLLNCCPHDVLSGTRMDLGECLKVHDLALRADYEIASKEQDFFFELDAMDHLQSFIADCDRRTEVAKKRLAETQEEISAEVAAKAERVHELNEEIGKLLAKVEQLGAEGNVEESQKVMDEVEKARAKKREAEEVYRNSMPASSFQQQKLRVCEVCSAYLGLHDNDRRLADHFGGKLHLGFIEIREKLEELKRVVAEKQEKRNQERLKRREEREREEREKLRRSRSHSKNPKRSRSREHRRHRSRSMSRERKRRTRSKSREKRHRHRSRSSSRSRSRSHQRSRHSSRDRSRERSKRRSSKERFRDQDLASCDRDRSSRDRSPRDRDRKDKKRSYESANGRSEDRRSSEEREAGEI
B12: SRp40 (protein, UniProt Q13243 1-272)
chain: MSGCRVFIGRLNPAAREKDVERFFKGYGRIRDIDLKRGFGFVEFEDPRDADDAVYELDGKELCSERVTIEHARARSRGGRGRGRYSDRFSSRRPRNDRRNAPPVRTENRLIVENLSSRVSWQDLKDFMRQAGEVTFADAHRPKLNEGVVEFASYGDLKNAIEKLSGKEINGRKIKLIEGSKRHSRSRSRSRSRTRSSSRSRSRSRSRSRKSYSRSRSRSRSRSRSKSRSVSRSPVPEKSQKRGSSSRSKSPASVDRQRSRSRSRSRSVDSGN

The binders below were run against FLAG-V5-tagged PUF60 (PUF60L) (human) (UniProt Q9UHX1) (assay: affinity purification with mass spectrometry; F-V5-PUF60L precipitated from HeLa S3 nuclear extract on ANTI-FLAG M2 Affinity Gel, 1 h at 4°C, IP buffer (20 mM Hepes pH 8, 150 mM KCl, 1.5 mM MgCl2); washes with 250 mM KCl, 0.05% Triton X-100, one with 200 ng/ml RNase A; digested on the beads, or eluted with FLAG peptide and gel bands excised; only proteins found in both experiments and absent from control HeLa extract are listed).
For B1, the binding was “binds”. In the case of B2, the binding is reported as “binds”. B3 was tested, and the binding was “binds”. In the case of B4, the binding is reported as “binds”. B5 was tested, and the binding was “binds”. For B6, the binding was “binds”. In the case of B7, the binding is reported as “binds”. With B8 the binding was “binds”. For B9, the binding was “binds”. B10 was tested, and the binding was “binds”. For B11, the binding was “binds”. In the case of B12, the binding is reported as “binds”.
